This is an account of results in patent US20210087159A1, “TETRAHYDROCANNABINOLIC- CA[…] DERIVATIVES AND USES THEREOF” (AL&AM […]., priority 2018, published 2021).

Common to all, as to test: CellTiter-Glo cell viability assay, cancer cell cytotoxicity/anti-proliferation panel (Chempartner)
Holding throughout (type): cell-based

One test has as its system U251, brain human glioma. Conditions: compounds 10 μM starting, STS 2 μM starting.
The test system of test [1] is Caco-2 ATCC colon adenocarcinoma. The following applies: 72 hours, compounds 10 μM starting, STS 2 μM starting. Here is the method: (§1) In this study, the biological activity of certain compounds of the present invention on cancer cell cytotoxicity/anti-proliferation panel was tested using the CellTiter-Glo® cell viability assay. The compounds were dissolved in DMSO to make 10 mM solution.
(§2) The cell lines tested were all selected from the Chempartner's cell collection and included: Caco-2 ATCC colon adenocarcinoma; TE-6 RIKEN esophagus, carcinoma; PC-3 ATCC prostate adenocarcinoma; T47D, breast ductal carcinoma; U251, brain human glioma; A549, lung carcinoma; OMP-2, multiple myeloma; SK-HEP-1, liver adenocarcinoma; PANC-1, pancreas ductal carcinoma; AsPC-1, pancreas, ductal carcinoma; and U-87 MG, brain glioblastoma.
(§3) For the assays described herein, absolute inhibition of cells growth (%) and absolute IC50 (Abs IC50; […]) were used to derive a value that can be used to compare results within and across runs in the same assay, as well as between different assays.
(§4) • a. Prepare complete medium: Add FBS and appropriate additives according to the information sheet provided by the vendor. Mix gently. • b. Check the cell name and complete medium and passage number marked on the flask. For adherent cell lines, refer to c to k. For suspension cell lines, refer to g to k. • c. Remove and discard culture medium using a vacuum pump. • d. Briefly rinse the cell layer with 0.25% (w/v) trypsin-0.038% (w/v) EDTA solution to remove all traces of serum that contains trypsin inhibitor. • e. Add 3.0 ml of trypsin-EDTA solution to flask and observe cells under an inverted microscope until cell layer is dispersed. • f. Add 8.0 ml of complete growth medium and aspirate cells by gently pipetting. • g. Transfer the cell suspension to a centrifuge tube and centrifuge at 800-1000 rpm for 3-5 minutes. • h. Discard the supernatant using a vacuum pump. • i. Add appropriate volume of complete medium. Suspend the cell pellet by gently pipetting. • j. Count the cell numbers with Vi-cell XR and adjust cells to appropriate density. • k. Add 100 μL of cell suspension to 96-well opaque-walled clear bottom plates according to the planned plate layout and place the plates in the CO2 incubator overnight. • l. Plate layout:
(§5) • Plate preparation of testing articles. 10 mM stock solution of each one of the compounds (provided as powder) was prepared in DMSO. […] 0.5 μL of each of the diluted compounds was transferred to the wells containing 100 μL of the culture medium. The total dilution was 200 fold. Cells were incubated with the compounds for 72 hours at 5% CO2, 37° C.
(§6) • Thaw the CellTiter-Glo buffer and equilibrate to room temperature prior to use. • Equilibrate the lyophilized CellTiter-Glo substrate to room temperature prior to use. • Transfer the appropriate volume of CellTiter-Glo buffer into the amber bottle containing CellTiter-Glo substrate to reconstitute the lyophilized enzyme/substrate mixture. This forms the CellTiter-Glo reagent. • Mix by gently vortexing, swirling or by inverting the contents to obtain a homogeneous solution. The CellTiter-Glo substrate should go into solution easily in less than one minute.

Test [2] deals with PC-3 ATCC prostate adenocarcinoma. Conditions: 72 hours, compounds 10 μM starting, STS 2 μM starting. Here is the method:
as §1, §2, §3, §4, §5, §6

Test [3] deals with TE-6 RIKEN esophagus, carcinoma. The following applies: 72 hours, compounds 10 μM starting, STS 2 μM starting. As for the experimental part:
as §1, §2, §3, §4, §5, §6

Test [4] deals with T47D, breast ductal carcinoma. The following applies: 72 hours, compounds 10 μM starting, STS 2 μM starting. Here is the method:
as §1, §2, §3, §4, §5, §6

For a further test, the system named is A549, lung carcinoma. Conditions: 72 hours, compounds 10 μM starting, STS 2 μM starting. Here is the method:
as §1, §2, §3, §4, §5, §6

Test [5] has as its system SK-HEP-1, liver adenocarcinoma. The following applies: 72 hours, compounds 10 μM starting, STS 2 μM starting, 10-pt, 3-fold dilution. Here is the method: as §1, §2, §3, §4, §5, §6
The test system of test [6] is AsPC-1, pancreas, ductal carcinoma. Conditions: compounds 10 μM starting, STS 2 μM starting. As for the experimental part: as §1, §2, §3, §4, §5, §6
Test [7] deals with U-87 MG, brain glioblastoma. The following applies: 72 hours, compounds 10 μM starting, STS 2 μM starting, 10-pt, 3-fold dilution. Here is the method: as §1, §2, §3, §4, §5, §6
A further test relates to OMP-2, multiple myeloma. The following applies: 72 hours, compounds 10 μM starting, STS 2 μM starting. Here is the method: as §1, §2, §3, §4, §5, §6
The test system of test [8] is PANC-1, pancreas ductal carcinoma. Conditions: 72 hours, compounds 10 μM starting, STS 2 μM starting, 10-pt, 3-fold dilution. As for the experimental part:
as §1, §2, §3, §4, §5, §6

The mark [9] stands for this setting: 72 hours, 10-pt, 3-fold dilution.
[10] abbreviates: Homo sapiens, read-out: IC50 (absolute IC50).

A word on the Inhibition: it is the relative decrease from the control value, in per cent. Lower therefore signals little suppression. A word on the IC50: it is the concentration at which inhibition is half-maximal.

As to `CN[C@@H]1C[C@H]2O[C@@](C)([C@@H]1OC)n1c3ccccc3c3c4c(c5c6ccccc6n2c5c31)C(=O)NC4` [STS, Staurosporine, reference compound], the Inhibition with U251, brain human glioma (setting [9]) was 95.87%; in [1] (10-pt, 3-fold dilution), 91.56%; in test [2] (10-pt, 3-fold dilution), 78.98%; in test [3] (10-pt, 3-fold dilution), 100%; in test [4] (10-pt, 3-fold dilution), 83.46%; with A549, lung carcinoma (10-pt, 3-fold dilution), 93.20%. The Inhibition in [5] is recorded as 100%; in [6] (setting [9]) it was 88.40%; in [7], 94.92%; in the test with OMP-2, multiple myeloma (10-pt, 3-fold dilution), 100%; in test [8], 99.83%. Moreover, the IC50 with U251, brain human glioma (Homo sapiens, U-251, 72 hours, read-out: IC50 (absolute IC50)) was 0.01 µM; in test [1] (setting [10]), 0.01 µM; in [2] (read-out: IC50 (absolute IC50)) it was 0.02 µM; in [3] (read-out: IC50 (absolute IC50)), 0.01 µM; in test [4] (setting [10]) it was 0.22 µM; in the test with A549, lung carcinoma (setting [10]), 0.01 µM. In addition, the IC50 in test [6] (Homo sapiens, ASPC1, 72 hours, read-out: IC50 (absolute IC50)) is 0.042 µM; in the test with OMP-2, multiple myeloma (read-out: IC50 (absolute IC50)), 0.01 µM.
